PubChem BioAssay AID1508597, Cure First, 2020

Assay: 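Genes whose silencing sensitises or protects ovarian cancer cells against rucaparib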 (primary screen)
Cells: human ovarian carcinoma lines grown from tumours: OCI-P5x (papillary serous) and OCI-C5x (clear cell)
Reagents: siRNA pool against human genes, 1.25 pmol siRNA per well
Duration: 72 h or 96 h, depending on the cell culture
Treatment: rucaparib 20 µM (about IC30) or vehicle, present until read-out
Rucaparib or vehicle: Vehicle
Cell line: OCI-P5x (serous)
Detection: 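Luminescent ATP-based viability assay read 72 or 96 h after transfection, depending on culture, given as normalised percent viability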
Direction: viability, normalised: higher = more viable cells remaining
Call rule: 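Active when normalised viability falls below 80 percent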
Meaning of the calls: active = viability under 80%; inactive = viability 80% or more
This is an unselected part of the about 2,100 reagents, in one setting of the screen. 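Calls flag viability under 80% in either arm, not effects specific to rucaparib; the reference for percent is not stated.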 Unmarked entries are inactive. Not stated in the record: the 100% reference.

For HLTF (helicase like transcription factor), technical replicate 1, how do the results read?
viability, normalised (%): 68.9 (active)

How did the screen score HLTF (helicase like transcription factor), technical replicate 2?
viability, normalised (%): 79.8 (active)

How did the screen score HLTF (helicase like transcription factor), technical replicate 3?
viability, normalised (%): 112

Which result is listed for DDX53 (DEAD-box helicase 53), technical replicate 1?
viability, normalised (%): 51.5 (active)

With DDX53 (DEAD-box helicase 53), technical replicate 2, what was measured?
viability, normalised (%): 52.8 (active)

For DDX53 (DEAD-box helicase 53), technical replicate 3, what does the deposit list?
viability, normalised (%): 64.5 (active)

Looked up above.
HLTF (helicase like transcription factor), technical replicate 2, viability, normalised (%) → 79.8 (active)
Entry for DDX53 (DEAD-box helicase 53), technical replicate 2 under “viability, normalised (%)”: 52.8 (active)

Further records:
Which result is listed for MORC4 (MORC family CW-type zinc finger 4), technical replicate 1?
viability, normalised (%): 65.8 (active)

What is on record for MORC4 (MORC family CW-type zinc finger 4), technical replicate 2?
viability, normalised (%): 84.1

With MORC4 (MORC family CW-type zinc finger 4), technical replicate 3, what does the deposit list?
viability, normalised (%): 75.8 (active)

How did the screen score MAST3 (microtubule associated serine/threonine kinase 3), technical replicate 1?
viability, normalised (%): 71.4 (active)

For MAST3 (microtubule associated serine/threonine kinase 3), technical replicate 2, what was measured?
viability, normalised (%): 75.8 (active)

For MAST3 (microtubule associated serine/threonine kinase 3), technical replicate 3, how do the results read?
viability, normalised (%): 89.3
